Source: ChEMBL document CHEMBL3988442, “University of Dundee, Small-Polar-MMV Screening Library” (2021).

Protein sequences, listed by entry. Tags and fused reporters are not part of them. Residues count along the entry.
UniProt P9WNZ1, whole entry: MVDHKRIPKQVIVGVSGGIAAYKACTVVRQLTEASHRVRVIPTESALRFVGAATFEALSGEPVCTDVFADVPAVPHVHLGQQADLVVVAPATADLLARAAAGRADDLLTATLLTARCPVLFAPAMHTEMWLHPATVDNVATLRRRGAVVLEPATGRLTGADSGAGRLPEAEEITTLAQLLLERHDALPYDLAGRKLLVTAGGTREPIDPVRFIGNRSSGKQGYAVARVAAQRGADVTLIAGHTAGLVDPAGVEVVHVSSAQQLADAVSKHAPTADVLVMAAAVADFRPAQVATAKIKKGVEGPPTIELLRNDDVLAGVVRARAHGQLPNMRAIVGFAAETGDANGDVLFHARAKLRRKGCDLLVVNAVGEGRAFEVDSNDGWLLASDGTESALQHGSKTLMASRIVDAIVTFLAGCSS
UniProt I6X8D2, whole entry: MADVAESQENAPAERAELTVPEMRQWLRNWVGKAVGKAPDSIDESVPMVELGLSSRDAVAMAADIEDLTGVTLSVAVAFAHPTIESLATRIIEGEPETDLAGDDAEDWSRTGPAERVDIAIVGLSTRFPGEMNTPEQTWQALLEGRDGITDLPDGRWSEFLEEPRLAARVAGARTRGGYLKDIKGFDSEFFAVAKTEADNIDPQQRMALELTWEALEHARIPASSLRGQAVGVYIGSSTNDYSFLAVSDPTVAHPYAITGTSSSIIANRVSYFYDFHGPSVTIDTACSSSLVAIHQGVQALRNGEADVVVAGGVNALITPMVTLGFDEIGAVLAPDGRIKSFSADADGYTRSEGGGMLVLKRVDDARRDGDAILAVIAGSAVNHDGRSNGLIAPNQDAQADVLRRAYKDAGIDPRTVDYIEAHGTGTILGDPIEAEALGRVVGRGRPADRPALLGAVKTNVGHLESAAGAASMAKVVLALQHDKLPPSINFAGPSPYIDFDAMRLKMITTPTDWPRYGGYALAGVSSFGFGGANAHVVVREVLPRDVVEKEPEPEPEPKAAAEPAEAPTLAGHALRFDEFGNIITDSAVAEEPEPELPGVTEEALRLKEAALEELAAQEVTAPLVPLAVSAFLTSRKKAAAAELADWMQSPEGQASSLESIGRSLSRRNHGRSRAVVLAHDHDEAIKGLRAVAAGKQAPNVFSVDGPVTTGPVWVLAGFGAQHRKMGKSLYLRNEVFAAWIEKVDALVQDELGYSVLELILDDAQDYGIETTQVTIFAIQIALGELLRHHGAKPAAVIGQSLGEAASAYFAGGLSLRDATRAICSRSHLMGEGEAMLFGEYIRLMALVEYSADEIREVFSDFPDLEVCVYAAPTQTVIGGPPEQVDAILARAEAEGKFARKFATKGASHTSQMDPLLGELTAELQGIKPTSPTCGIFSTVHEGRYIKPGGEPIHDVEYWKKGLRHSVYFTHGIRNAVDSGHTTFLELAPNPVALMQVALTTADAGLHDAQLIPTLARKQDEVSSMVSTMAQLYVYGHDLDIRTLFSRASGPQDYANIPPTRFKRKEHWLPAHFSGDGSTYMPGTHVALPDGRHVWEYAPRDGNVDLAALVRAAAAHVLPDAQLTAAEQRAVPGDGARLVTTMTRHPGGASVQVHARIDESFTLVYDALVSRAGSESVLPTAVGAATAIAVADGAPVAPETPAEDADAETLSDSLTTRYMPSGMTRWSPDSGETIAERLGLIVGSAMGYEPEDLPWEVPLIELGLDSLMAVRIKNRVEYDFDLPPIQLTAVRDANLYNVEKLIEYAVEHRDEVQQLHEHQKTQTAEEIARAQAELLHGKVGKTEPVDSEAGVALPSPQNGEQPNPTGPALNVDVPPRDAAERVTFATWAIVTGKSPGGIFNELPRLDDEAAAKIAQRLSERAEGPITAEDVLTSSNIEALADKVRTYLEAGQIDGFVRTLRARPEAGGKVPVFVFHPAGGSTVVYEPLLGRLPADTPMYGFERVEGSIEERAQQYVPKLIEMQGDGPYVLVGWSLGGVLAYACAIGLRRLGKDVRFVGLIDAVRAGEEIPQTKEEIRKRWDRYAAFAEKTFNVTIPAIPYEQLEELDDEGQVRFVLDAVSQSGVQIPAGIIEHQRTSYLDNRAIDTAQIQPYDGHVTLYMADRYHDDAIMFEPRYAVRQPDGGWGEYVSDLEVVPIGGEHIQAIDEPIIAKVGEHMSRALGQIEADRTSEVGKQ
UniProt P9WPC5, whole entry: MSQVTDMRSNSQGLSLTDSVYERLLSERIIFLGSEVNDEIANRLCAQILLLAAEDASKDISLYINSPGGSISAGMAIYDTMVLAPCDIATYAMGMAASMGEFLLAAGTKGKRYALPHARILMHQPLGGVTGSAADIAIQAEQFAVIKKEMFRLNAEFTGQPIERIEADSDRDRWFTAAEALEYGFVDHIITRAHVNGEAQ
UniProt P9WPC3, whole entry partner: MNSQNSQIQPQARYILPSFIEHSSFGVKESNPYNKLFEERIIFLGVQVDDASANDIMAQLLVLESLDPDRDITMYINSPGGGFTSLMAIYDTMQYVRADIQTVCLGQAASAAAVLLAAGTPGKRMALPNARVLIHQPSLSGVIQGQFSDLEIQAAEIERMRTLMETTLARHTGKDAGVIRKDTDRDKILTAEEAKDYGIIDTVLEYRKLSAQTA
UniProt A4I591, 1-473: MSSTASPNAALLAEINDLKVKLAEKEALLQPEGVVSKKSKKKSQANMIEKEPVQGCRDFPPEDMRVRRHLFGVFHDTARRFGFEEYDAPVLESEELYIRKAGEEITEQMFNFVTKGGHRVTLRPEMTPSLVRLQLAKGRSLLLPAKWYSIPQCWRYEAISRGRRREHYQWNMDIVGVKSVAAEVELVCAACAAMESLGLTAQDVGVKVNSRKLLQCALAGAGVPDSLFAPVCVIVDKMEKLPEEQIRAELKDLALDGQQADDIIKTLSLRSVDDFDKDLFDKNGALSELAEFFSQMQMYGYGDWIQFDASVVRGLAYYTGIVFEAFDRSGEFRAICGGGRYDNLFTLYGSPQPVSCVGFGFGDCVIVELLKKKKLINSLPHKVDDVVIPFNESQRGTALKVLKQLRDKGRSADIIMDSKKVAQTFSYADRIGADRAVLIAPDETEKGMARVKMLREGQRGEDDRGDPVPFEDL
UniProt P9WFT3, whole entry: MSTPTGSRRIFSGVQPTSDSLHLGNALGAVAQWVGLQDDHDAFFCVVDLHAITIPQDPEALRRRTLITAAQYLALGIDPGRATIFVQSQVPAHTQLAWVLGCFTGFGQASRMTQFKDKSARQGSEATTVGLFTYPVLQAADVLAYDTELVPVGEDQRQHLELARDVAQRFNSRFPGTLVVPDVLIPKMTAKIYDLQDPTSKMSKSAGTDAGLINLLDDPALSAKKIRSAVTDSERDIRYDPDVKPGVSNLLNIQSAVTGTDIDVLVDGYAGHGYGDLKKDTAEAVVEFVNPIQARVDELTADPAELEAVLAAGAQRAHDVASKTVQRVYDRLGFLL

A: 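Coenzyme A biosynthesis protein CoaBC, Mycobacterium tuberculosis (UniProt P9WNZ1). Enzyme assay of CoaBC with a phosphate dye (Biomol Green) read at 650 nm. Tested at 30 µM. Direction is inferred from only a few compounds that gave an IC50; most scored high, so higher reads as stronger inhibition. Most strong results did not repeat in a second test. About 67,000 compounds were tested under these conditions; 0.06% (about 40) showed 50% or more at least once.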
B: 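Enzyme assay of the thioesterase domain of polyketide synthase 13; the read-out is not stated. Target: Polyketide synthase Pks13, Mycobacterium tuberculosis (UniProt I6X8D2). Concentration: 30 µM. The record gives no direction; the compounds picked for IC50 retests had high values, so higher reads as stronger inhibition. About 67,000 compounds were tested under these conditions; 0.46% (about 300) showed 50% or more at least once.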
C: 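ClpP1P2, Mycobacterium tuberculosis (UniProt P9WPC5 and UniProt P9WPC3). Protease assay of ClpP1P2, read by the AMC dye that it sets free. Tested at 50 µM. Direction is inferred from only a few compounds that gave an IC50; most scored high, so higher reads as stronger inhibition. Most other retested compounds had strongly negative values. Of about 69,000 compounds tested this way, about 10 (0.015%) reached 50% or more in at least one test.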
D: 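Enzyme assay of histidyl-tRNA synthetase; the read-out is not stated. Target: Histidine-tRNA ligase, Leishmania infantum (UniProt A4I591). Compounds at 30 µM. Direction is inferred from retests: higher values go with stronger inhibition. The assay is labelled LdHisRS but filed under L. infantum. Of about 69,000 compounds tested this way, about 410 (0.6%) reached 50% or more in at least one test.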
E: 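Tryptophan-tRNA ligase, Mycobacterium tuberculosis (UniProt P9WFT3). Enzyme assay of tryptophanyl-tRNA synthetase; the read-out is not stated. Concentration: 10 µM. Direction is not recorded; retested compounds ran higher, which suggests that high means inhibition. About 65,000 compounds were tested under these conditions; 0.098% (about 64) showed 50% or more at least once.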

The filed quantity is “Percent Effect” (%). The controls that fix the scale are not given in the record; negative values are as filed. Compounds were drawn at random from those tested, without regard to their results. Two or more numbers in one place are separate tests of the same structure; such repeats can differ widely. A dash means the value is not listed here; it may have been measured.

structure	A	B	C	D	E
COC(=O)c1ccn(COc2ccccc2Cl)n1	-15.65	-6.483	-12.67	6.195	-0.9855
NS(=O)(=O)c1ccc(N2CCN(CCCc3cn[nH]c3)CC2)cc1	-2.584	-17.53	1.886	4	6.524
FC(F)(F)c1cccc(-c2c[nH]c(C3CCCN3)n2)c1 (centres undefined)	-	-24.05	-0.4456	18.31	-0.7064
CC(=O)N1CCCCCC1C1CCN(Cc2nc(C(C)C)no2)CC1 (centres undefined)	0.4132	3.428	-1.762	2.667	-6.48
Cc1cc(C)cc(NCCC(=O)NC2CCN(C(=O)C3CC3)CC2)c1	-26.82	-17.98	6.623	16.85	-0.89
CCN(CC)c1ncc(Cl)c(C(=O)NC2CCC(O)CC2)n1 (centres undefined)	-0.8	12.98	2.736	0	-2.594
O=C1NCC(C(=O)Nc2ncc(Cc3ccc(F)cc3)s2)N1 (centres undefined)	7.329	-2.364	-17.4	8.772	-0.7099
Cc1nc(C)n(CC2CCCN(c3ncnc4ccsc34)C2)n1 (centres undefined)	2.017	-4.745	4.145	14.29	-3.052
CC(C)NC(=O)c1ccc(NC(=O)NC(C)c2ccccn2)cc1 (centres undefined)	12.3	10.43	-6.828	20.43	7.731
O=C1CN(Cc2cn(CC3CCCN(C4CCSCC4)C3)nn2)CCN1 (centres undefined)	43.55 and 4.233	-1.675	21.69	35.56	8.787
Cn1cc(-c2ncc3c(c2C(=O)O)CCN(Cc2ccco2)C3)cn1	3.171	9.61	-11.18	15.09	-
CN(C)c1nc2c(c(N3CCc4ccccc4C3)n1)CCNC2	-17.42	-10.46	-14.12	58.57	-1.805
Cc1cccc(N2CC3(CCN(S(=O)(=O)c4ccccc4)C3)CC2=O)c1 (centres undefined)	8.143	-47.14	0.4508	34.29	-3.092
Cn1cnc2cc(C(=O)NS(=O)(=O)CC3CCCC3)ccc21	14.08	-16.2	-13.5	12.05	-4.706
CCC(CC)C(CNC(=O)Nc1cnn(CCOC)c1)N(C)C (centres undefined)	-9.829	-27.25	-10.28	13.68	3.069
CCn1nc(C)c(CNC(=O)c2nnc3ccc(Cl)cc3n2)c1C	4.592	-3.083	-5.659	18.52	-2.164
CCOCC(=O)N1Cc2nnn(C)c2C(COCc2ccccn2)C1 (centres undefined)	5.305	32.68	-3.673	5.405	4.195
CN1CCCN(C(=O)NCCOc2ccc3c(c2)OCO3)CC1	1.195	-7.386	-7.656	7.692	-4.061
O=C(c1ccco1)N1CCOCC2(C1)CN(c1ccccc1)C(=O)CO2 (centres undefined)	3.173	-6.896	4.178	13.21	-2.623
CN(C)CCCn1ccnc1C1CCN(c2cccc(C(=O)O)n2)CC1	-	-31.92	-0.5058	-9.859	0.7064
O=C(CSc1nnc[nH]1)NCc1sccc1Br	-1.373	-29.93	9.039	21.13	1.802
CC(C)N1CCn2c(nc3cc(C(N)=O)ccc32)C1	0.1346	-20.23	4.613	15.53	5.025
Cc1nc(NCCN2CCCC2=O)cc(C2CN(C(C)C)CCO2)n1 (centres undefined)	-8.676	-1.023	-18.91	2.685	-4.777
Cc1nc(C)n(CC2CCCCN2CCS(C)(=O)=O)n1 (centres undefined)	-5.33	-23.57	-12.34	-5.769	-3.019
CC(C)c1nc(N2CCC(N3CCSCC3)CC2)c2cnn(C)c2n1	4.039	-5.151	-5.92	15.96	4.417
Cc1nnc(NCc2ccccc2F)c(C#N)c1C	10.34	-19.5	-14.63	49.54	5.902
c1ccc2c(c1)CCN(c1nc(-c3ccncc3)nc3c1CCNC3)C2	-16.6	-8.187	-5.775	101.4	5.415
CN1CCN(C(=O)CC2CCN(CCc3ccccn3)CC2)CC1	4.615	-17.38	-6.196	13.33	3.987
CCc1noc(C(C)N2CCN(C)CC2)n1 (centres undefined)	-0.5222	-11.52	-16.86	8.621	-7.688
CCOc1ccccc1NC(=O)NCc1ccoc1	-	-41.42	12.84	26.76	3.128
CC1(C)COCCN1C(=O)c1ccc(Cn2cncn2)cc1	2.254	-5.206	3.446	24.29	-1.444
CCS(=O)(=O)Nc1ccc2c(c1)OCC(C)(C)C(=O)N2C	-3.008	-10.82	17.18	15.73	3.375

The first 3 entries again:

{"structure": "COC(=O)c1ccn(COc2ccccc2Cl)n1", "A": -15.65, "B": -6.483, "C": -12.67, "D": 6.195, "E": -0.9855}
{"structure": "NS(=O)(=O)c1ccc(N2CCN(CCCc3cn[nH]c3)CC2)cc1", "A": -2.584, "B": -17.53, "C": 1.886, "D": 4, "E": 6.524}
{"structure": "FC(F)(F)c1cccc(-c2c[nH]c(C3CCCN3)n2)c1", "stereo": "centres undefined", "B": -24.05, "C": -0.4456, "D": 18.31, "E": -0.7064}